Experimental data taken from patent US20130260436A1, “Methods of Identifying and Characterizing Natural Product Gene Clusters” (Victoria LInk Limited, priority 2010, published 2013).
At least one read-out could not be matched to a standard name with certainty.

Sequences of proteins named here, by UniProt entry; tags and fusion partners are left off. A change or cut given only in a name is not applied to a line headed by its entry.
UniProt Q1MWN4: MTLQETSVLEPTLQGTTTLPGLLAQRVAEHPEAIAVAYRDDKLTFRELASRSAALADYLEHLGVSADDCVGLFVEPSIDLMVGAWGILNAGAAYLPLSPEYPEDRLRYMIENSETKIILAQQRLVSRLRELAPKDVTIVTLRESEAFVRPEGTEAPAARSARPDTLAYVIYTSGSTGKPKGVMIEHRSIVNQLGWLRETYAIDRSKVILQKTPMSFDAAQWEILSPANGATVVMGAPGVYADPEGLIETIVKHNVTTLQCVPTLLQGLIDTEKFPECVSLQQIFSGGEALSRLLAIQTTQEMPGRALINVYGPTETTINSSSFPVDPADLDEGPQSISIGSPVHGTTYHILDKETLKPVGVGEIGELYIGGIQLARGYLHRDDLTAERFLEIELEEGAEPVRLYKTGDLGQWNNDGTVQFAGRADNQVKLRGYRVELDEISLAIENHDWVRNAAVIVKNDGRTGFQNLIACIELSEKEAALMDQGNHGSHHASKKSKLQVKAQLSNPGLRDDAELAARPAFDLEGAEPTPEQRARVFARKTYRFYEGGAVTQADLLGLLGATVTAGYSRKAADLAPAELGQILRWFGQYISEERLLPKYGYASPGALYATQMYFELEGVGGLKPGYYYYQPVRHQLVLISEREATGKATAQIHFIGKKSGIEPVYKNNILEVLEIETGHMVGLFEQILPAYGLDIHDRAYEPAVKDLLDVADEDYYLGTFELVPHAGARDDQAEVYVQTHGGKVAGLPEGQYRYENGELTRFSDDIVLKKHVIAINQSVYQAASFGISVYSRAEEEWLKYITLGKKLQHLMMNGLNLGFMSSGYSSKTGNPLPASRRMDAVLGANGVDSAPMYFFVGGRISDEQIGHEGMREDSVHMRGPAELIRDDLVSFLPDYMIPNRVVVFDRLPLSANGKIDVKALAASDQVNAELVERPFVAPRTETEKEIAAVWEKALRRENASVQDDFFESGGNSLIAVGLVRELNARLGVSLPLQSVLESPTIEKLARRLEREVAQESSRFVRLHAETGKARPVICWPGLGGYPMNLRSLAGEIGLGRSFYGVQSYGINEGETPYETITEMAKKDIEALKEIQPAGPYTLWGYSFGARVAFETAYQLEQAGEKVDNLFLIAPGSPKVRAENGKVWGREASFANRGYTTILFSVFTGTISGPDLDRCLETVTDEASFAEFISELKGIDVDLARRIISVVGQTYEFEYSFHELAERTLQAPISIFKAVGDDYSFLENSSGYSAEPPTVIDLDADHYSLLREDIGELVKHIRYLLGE

Biological target: T1, BpsA (Streptomyces lavendulae, UniProt Q1MWN4)
T1 construct: 6His; made in house; host or cells: E. coli
Test: BpsA coupled assay for PPTase kinetic parameters, BpsA as variable substrate
Format: biochemical, S. lavendulae ATCC 11924
Settings: CoA fixed at 25 μM
Description: Having established a linear relationship between concentration of holo-BpsA and the apparent rate of indigoidine synthesis in aqueous solution, we next wanted to test whether it was possible to evaluate PPTase activity by using acceleration of the rate of indigoidine synthesis as a measure of the rate of 4′-PP attachment to apo-BpsA. […] Under these conditions, the pigment synthesis reaction undergoes an initial acceleration phase as apo-BpsA is converted to holo-BpsA by the PPTase. […]
A590 values were then recorded as previously described. […] A590 values were then recorded as previously described. For derivation of PPTase velocity values, the slope between every 2-8 data points was measured across the entire data range with the resulting values forming a new data set (BpsA velocity). The slope between every 2-8 points in the BpsA velocity data set was then determined using the slope function of Microsoft Excel and the maximum value from the resulting data set for each reaction taken as a measure of PPTase velocity. […] For fast reactions smaller increments could be used, however for slow reactions noise from plate reader noise became a significant factor in point to point variation and created artificial fluctuations in measured slopes if too few points were used in slope determination. […]

B1: Sfp: PPTase of B. subtilis subsp. spizizenii ATCC6633 (protein, UniProt P39135 1-224, looked up)
4'-phosphopantetheinyl …: MKIYGIYMDRPLSQEENERFMSFISPEKREKCRRFYHKEDAHRTLLGDVLVRSVISRQYQLDKSDIRFSTQEYGKPCIPDLPDAHFNISHSGRWVICAFDSQPIGIDIEKTKPISLEIAKRFFSKTEYSDLLAKDKDEQTDYFYHLWSMKESFIKQEGKGLSLPLDSFSVRLHQDGQVSIELPDSHSPCYIKTYEVDPGYKMAVCAAHPDFPEDITMVSYEELL
B1 gave a kcat/Km of 10800 ± 670 M⁻¹ s⁻¹.
